# Article PMC5312319
# Target: HA-AKT
# Assay: co-IP; HA-AKT and Flag-HDAC10 overexpressed in 293T cells; IP with anti-HA beads, blots with anti-AKT and anti-HDAC10; with or without treatment of the cells with Bufexamac (interaction reduced)
binder,measurement,value
"Flag-HDAC10 (protein, UniProt Q969S8 1-669) MGTALVYHEDMTATRLLWDDPECEIERPERLTAALDRLRQRGLEQRCLRLSAREASEEELGLVHSPEYVSLVRETQVLGKEELQALSGQFDAIYFHPSTFHCARLAAGAGLQLVDAVLTGAVQNGLALVRPPGHHGQRAAANGFCVFNNVAIAAAHAKQKHGLHRILVVDWDVHHGQGIQYLFEDDPSVLYFSWHRYEHGRFWPFLRESDADAVGRGQGLGFTVNLPWNQVGMGNADYVAAFLHLLLPLAFEFDPELVLVSAGFDSAIGDPEGQMQATPECFAHLTQLLQVLAGGRVCAVLEGGYHLESLAESVCMTVQTLLGDPAPPLSGPMAPCQSALESIQSARAAQAPHWKSLQQQDVTAVPMSPSSHSPEGRPPPLLPGGPVCKAAASAPSSLLDQPCLCPAPSVRTAVALTTPDITLVLPPDVIQQEASALREETEAWARPHESLAREEALTALGKLLYLLDGMLDGQVNSGIAATPASAAAATLDVAVRRGLSHGAQRLLCVALGQLDRPPDLAHDGRSLWLNIRGKEAAALSMFHVSTPLPVMTGGFLSCILGLVLPLAYGFQPDLVLVALGPGHGLQGPHAALLAAMLRGLAGGRVLALLEENSTPQLAGILARVLNGEAPPSLGPSSVASPEDVQALMYLRGQLEPQWKMLQCHPHLVA",binding,binds

# No constants are given. Whether binding was seen depends on the method and setting. Binding seen in cells or lysates may run through a third protein. A result given as binding can be weak or reduced; the word gives no strength. Tags and fused reporters may be left off the sequences shown.
